PubChem BioAssay AID1508588, Peter MacCallum Cancer Centre – 2020
Purpose: 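Genome-wide search for knock-downs that heighten vemurafenib action in melanoma cells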 (primary screen). System: human WM266.4 melanoma cells (BRAF V600 mutant). Reagents: siRNA pool against human genes, 40 nM. Time to read-out: 96 h from transfection to read-out. Treatment: vemurafenib 300 nM (about IC25), added 48 h after transfection, for 48 h; comparison arm got DMSO vehicle only. Measurement: 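Ratios to non-targeting siRNA for cell gain, counted as DAPI nuclei after minus before drug and averaged over two replicates, and for absorbance-read medium lactate per cell; both binned into fold-change classes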. Reading the numbers: cell gain with vemurafenib: higher = more cell gain than with non-targeting siRNA; lactate per cell with vemurafenib: higher = more lactate made per cell. Call rule: 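a knock-down counts as enhancing when its fold-change classes with vehicle and with vemurafenib, taken together, show a stronger drug effect on cell gain or lactate per cell; exact class pairs not stated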. Meaning of the calls: active = enhances vemurafenib effect; inactive = no enhancement seen.
The whole screen tested about 18,000 reagents; below is a part drawn at random. 790 of them (4.4%) were called active. 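Calls rest on a combination of fold-change classes in drug and vehicle arms, not all shown here.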 The numbers tell different reagents against one gene apart. Some reagents were tested in more than one well and are listed for each.

no.	Gene	reagent no.	cell gain with vemurafenib	lactate per cell with vemurafenib	activity call
1	PTTG2	1	0.71	0.91	inactive
2	GSDMA	1	0.7	0.54	inactive
3	WHRN	1	0.65	1.1	inactive
4	SLC30A3	1	0.71	1.18	inactive
5	LGR4	1	0.36	0.47	active
6	PRAMEF16 (retired record)	1	0.4	1.41	inactive
7	FPGS	1	0.71	0.49	active
8	APCDD1	1	0.91	0.52	inactive
9	PPP1R1A	1	0.66	0.48	active
10	CRTAP	1	1.05	0.53	inactive
11	AQP11	1	0.78	0.74	inactive
12	ID2	1	0.61	1.32	inactive
13	CHMP1B	1	0.5	0.82	inactive
14	CEP350	1	0.44	1.52	inactive
15	TRNP1	1	0.51	0.42	inactive
16	SPATA31A1	1	1.05	0.79	inactive
17	SPATA31A1	2	1.16	0.64	inactive
18	IGFN1	1	0.44	1.39	inactive
19	ESR1	1	1.19	0.64	inactive
20	SCN1A	1	0.5	0.9	inactive
21	TENT5D	1	0.52	1.54	inactive
22	HNRNPM	1	0.7	1.86	inactive
23	H4C13	1	0.8	0.56	inactive
24	PKHD1L1	1	0.08	0.7	inactive
25	HOXA9	1	0.69	0.88	inactive
26	NUDT9	1	0.65	0.44	inactive
27	NUDT9	1	0.62	0.79	inactive
28	USP17L9P	1	0.59	1.88	inactive
29	NFIL3	1	0.57	0.88	inactive
30	OR51I2	1	0.63	1.43	inactive
31	ANKH	1	0.45	0.32	inactive
32	SLC45A2	1	0.88	0.85	inactive
33	HLA-L	1	0.43	0.9	inactive
34	QPCT	1	0.9	0.48	inactive
35	POLG2	1	0.91	1.68	inactive
36	TTLL8	1	0.29	1.57	inactive
37	PCDHGA8	1	0.53	1.75	inactive
38	CATSPER2	1	0.97	1.04	inactive
39	USP2	1	-0.01	0.14	active
40	OR2T35	1	1.04	0.32	inactive
41	OR52K1	1	0.31	0.73	inactive
42	FIS1	1	0.4	1.62	inactive
43	SLC30A7	1	0.53	1.02	inactive
44	SPRY1	1	0.31	2.17	inactive
45	SLITRK1	1	0.64	0.57	inactive
46	CYTIP	1	0.51	1.26	inactive
47	FREM2	1	0.3	0.68	inactive
48	PSMB9	1	0.77	2	inactive
49	ANGPTL4	1	0.7	0.99	inactive
50	NUDCD2	1	0.81	0.67	inactive
51	HEY1	1	0.36	0.88	inactive
52	GAPT	1	0.4	0.99	inactive
53	PABPC4	1	0.66	1.02	inactive
54	AKR1C3	1	0.3	0.92	inactive
55	TIMM22	1	0.9	0.68	inactive
56	KRT6C	1	0.55	1.42	inactive
57	ZNF112	1	0.57	2.17	inactive
58	APOO	1	0.48	0.06	active
59	ECI1	1	0.9	0.84	inactive
60	CABLES2	1	0.82	1.12	inactive
61	MRPS16	1	0.88	1.64	inactive
62	FAM187B	1	0.73	0.88	inactive
63	SMPD3	1	0.6	0.82	inactive
64	DHRS7	1	0.11	0.58	inactive
65	VIL1	1	0.48	0.34	inactive
66	RASGRF1	1	0.83	0.64	inactive
67	P2RY8	1	0.64	1.03	inactive
68	ZNF550	1	0.28	1.26	inactive
69	HOXA4	1	1.14	0.96	inactive
70	PPBP	1	0.69	0.78	inactive
71	UHMK1	1	0.09	0.29	active
72	PHAX	1	0.39	0.74	inactive
73	CH25H	1	0.65	1.46	inactive
74	SEPTIN10	1	0.2	1.34	inactive
75	RCOR3	1	0.53	0.43	active
76	OLA1	1	0.83	0.83	inactive
77	OR10X1	1	0.57	1.13	inactive
78	XAGE1B	1	0.83	1.02	inactive
79	KNOP1	1	1.28	0.88	inactive
80	CHIC1	1	0.34	1.03	inactive
81	ECM1	1	0.69	0.57	inactive
82	DET1	1	0.9	0.82	inactive
83	DRC11	1	0.5	0.5	inactive
84	FOXD4L6	1	0.86	0.6	inactive
85	UBE2D1	1	0.4	1.16	inactive
86	SYNJ1	1	0.81	0.58	inactive
87	PIH1D2	1	0.04	2.38	inactive
88	SMG8	1	0.52	0.94	inactive
89	CXCL12	1	0.5	0.62	inactive
90	VPS4A	1	0.18	1.66	active
91	CISH	1	1.07	0.59	inactive
92	FAR2	1	0.53	0.82	inactive
93	CORO2B	1	0.61	0.6	inactive
94	TRAPPC6B	1	0.71	0.5	inactive
95	EMX1	1	0.54	0.97	inactive
96	NTPCR	1	0.67	1.07	inactive
97	RNF208	1	0.79	0.95	inactive
98	MARCHF1	1	0.35	2.29	inactive
99	EPC1	1	0.52	0.98	inactive
100	ZSCAN21	1	0.31	1.4	inactive
101	NUFIP2	1	0.44	0.78	inactive
102	HERC5	1	0.55	0.48	inactive
103	NRXN3	1	0.85	0.54	inactive
104	LZTS2	1	0.13	2.63	inactive
105	KCND1	1	0.62	1.1	inactive
106	THOC7	1	0.96	0.78	inactive
107	CYP2E1	1	0.77	1.08	inactive

Called active, among the entries above:
Gene	reagent no.	cell gain with vemurafenib	lactate per cell with vemurafenib	activity call
LGR4	1	0.36	0.47	active
FPGS	1	0.71	0.49	active
PPP1R1A	1	0.66	0.48	active
USP2	1	-0.01	0.14	active
APOO	1	0.48	0.06	active
UHMK1	1	0.09	0.29	active
RCOR3	1	0.53	0.43	active
VPS4A	1	0.18	1.66	active
